These are yes or no findings as the source states them, for the method shown. For some of these results: In cells and extracts the contact can be indirect. Some binding calls cover weakened binding; strength is not graded here.
What was measured:
[1] = molecular target: p32 (endogenous) (human (endogenous in HEK-293T, ACHN and 786-O)) (UniProt Q07021); assay: co-IP; 786-O cells treated with or without 200 nM elesclomol and CuSO4 for 24 h; western blot
[2] = molecular target: FLAG-tagged C-terminal p32 (amino acids 175-282) (UniProt Q07021); assay: co-IP; HEK-293T cells 48 h after transfection of FLAG-p32 domain plasmids; lysate on Anti-DYKDDDDK Magnetic Agarose, 4°C overnight; five washes with IP buffer; immunoblot for DLAT
[3] = molecular target: FLAG-tagged p32 full length (amino acids 1-282) (UniProt Q07021); assay: as above
[4] = molecular target: FLAG-tagged p32 without the transit-peptide domain (amino acids 74-282) (UniProt Q07021); assay: as above
[5] = molecular target: p32 (endogenous) (human (endogenous in HEK-293T, ACHN and 786-O)) (UniProt Q07021); assay: co-IP; ACHN cell lysate; rabbit anti-p32 polyclonal antibody on Dynabeads Protein A, normal rabbit IgG as control; IP buffer 40 mM Tris-Cl, 120 mM NaCl, 1% Triton X-100; 4°C overnight; immunoblot with anti-DLAT
[6] = molecular target: lipoylated DLAT (lipo-DLAT), endogenous (human (endogenous in 786-O and ACHN)) (UniProt P10515); assay: non-reducing gel electrophoresis with immunoblot; ACHN cells, control and with stable expression of p32 (Figure S3B, C)
[7] = molecular target: lipoylated DLAT (lipo-DLAT), endogenous (human (endogenous in 786-O and ACHN)) (UniProt P10515); assay: non-reducing gel electrophoresis with immunoblot; 786-O-pCDH and 786-O-p32 cells treated with concentration gradients of elesclomol and CuSO4; lysates not boiled or sonicated, no reducing reagent in the loading buffer

Sequences of proteins named here, by UniProt entry; tags and fusion partners are left off. A change or cut given only in a name is not applied to a line headed by its entry. A line that says so, or that is headed by a name, gives the form on record, which may keep a tag or linker. Residues count along the entry.
UniProt Q07021: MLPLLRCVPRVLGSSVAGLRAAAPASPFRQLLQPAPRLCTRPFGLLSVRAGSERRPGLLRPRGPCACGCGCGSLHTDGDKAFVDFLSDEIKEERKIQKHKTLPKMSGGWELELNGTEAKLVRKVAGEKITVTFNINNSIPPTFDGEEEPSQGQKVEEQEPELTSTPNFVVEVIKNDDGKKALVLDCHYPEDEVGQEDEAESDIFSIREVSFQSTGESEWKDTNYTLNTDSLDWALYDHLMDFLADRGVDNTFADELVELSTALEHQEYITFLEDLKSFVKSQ
p32 (endogenous) (human (endogenous in HEK-293T, ACHN and 786-O)): residues 74-282 of Q07021
FLAG-tagged C-terminal p32 (amino acids 175-282): residues 175-282 of Q07021

Measured: binding

B1: Dihydrolipoyllysine-residue acetyltransferase component of pyruvate dehydrogenase complex (DLAT), endogenous (protein, UniProt P10515 87-647)
chain: SLPPHQKVPLPSLSPTMQAGTIARWEKKEGDKINEGDLIAEVETDKATVGFESLEECYMAKILVAEGTRDVPIGAIICITVGKPEDIEAFKNYTLDSSAAPTPQAAPAPTPAATASPPTPSAQAPGSSYPPHMQVLLPALSPTMTMGTVQRWEKKVGEKLSEGDLLAEIETDKATIGFEVQEEGYLAKILVPEGTRDVPLGTPLCIIVEKEADISAFADYRPTEVTDLKPQVPPPTPPPVAAVPPTPQPLAPTPSAPCPATPAGPKGRVFVSPLAKKLAVEKGIDLTQVKGTGPDGRITKKDIDSFVPSKVAPAPAAVVPPTGPGMAPVPTGVFTDIPISNIRRVIAQRLMQSKQTIPHYYLSIDVNMGEVLLVRKELNKILEGRSKISVNDFIIKASALACLKVPEANSSWMDTVIRQNHVVDVSVAVSTPAGLITPIVFNAHIKGVETIANDVVSLATKAREGKLQPHEFQGGTFTISNLGMFGIKNFSAIINPPQACILAIGASEDKLVPADNEKGFDVASMMSVTLSCDHRVVDGAVGAQWLAEFRKYLEKPITMLL
not listed: [6] | [7]
binds: all other assays above

B2: lipoylated DLAT (lipo-DLAT), endogenous (protein, UniProt P10515 87-647)
chain: SLPPHQKVPLPSLSPTMQAGTIARWEKKEGDKINEGDLIAEVETDKATVGFESLEECYMAKILVAEGTRDVPIGAIICITVGKPEDIEAFKNYTLDSSAAPTPQAAPAPTPAATASPPTPSAQAPGSSYPPHMQVLLPALSPTMTMGTVQRWEKKVGEKLSEGDLLAEIETDKATIGFEVQEEGYLAKILVPEGTRDVPLGTPLCIIVEKEADISAFADYRPTEVTDLKPQVPPPTPPPVAAVPPTPQPLAPTPSAPCPATPAGPKGRVFVSPLAKKLAVEKGIDLTQVKGTGPDGRITKKDIDSFVPSKVAPAPAAVVPPTGPGMAPVPTGVFTDIPISNIRRVIAQRLMQSKQTIPHYYLSIDVNMGEVLLVRKELNKILEGRSKISVNDFIIKASALACLKVPEANSSWMDTVIRQNHVVDVSVAVSTPAGLITPIVFNAHIKGVETIANDVVSLATKAREGKLQPHEFQGGTFTISNLGMFGIKNFSAIINPPQACILAIGASEDKLVPADNEKGFDVASMMSVTLSCDHRVVDGAVGAQWLAEFRKYLEKPITMLL
modifications: lipoylated (sites not given)
binds: [6] | [7]

— PMC10758103
